Experimental data as given in patent publication US9359323B2, “Compound” (priority 2010, dated 2016).

Test system: human pancreatic carcinoma cell line
Assay: Fluorescence microscopy of compound uptake in pancreatic cancer cell line
Assay type: cell-based
Settings: 20 μM, 60 minutes, Dapi filter, 40x magnification
Method: The human pancreatic carcinoma cell line was maintained in high glucose DMEM supplemented with 10% heat-inactivated foetal bovine serum (FBS).
(§1) Cells were plated into a 24-well tissue culture plate at a density of 20.5×10^4 cells per well. The cells were cultured at 37° C. in an atmosphere of 5% CO2 for 20-24 hours before the addition of 20 μM AO-CHA. The cells were incubated at 37° C. in an atmosphere of 5% CO2 and 19% oxygen for 60 minutes. Supernatant removed and wells washed twice with PBS. Cells imaged using a fluorescence microscope using a Dapi filter and forty times magnification. Images taken for both brightfield and fluorescence.
as §1, with “density of 18×10^4 cells per” for “density of 20.5×10^4 cells per”, “well. The Cells were cultured” for “well. The cells were cultured”, “20 μM AO3003. The cells” for “20 μM AO-CHA. The cells”

Row | SMILES | uptake into the cancer cell line (fluorescence)
1 | O=c1c(O)c(-c2cc(O)c(O)c(O)c2)oc2cc(C3CCCCC3)ccc12 [AO3003] | effective uptake
2 | COc1cc(-c2oc3cc(CC4CCC(N)CC4)ccc3c(=O)c2O)cc(OC)c1O (centres unmarked) [AO-CHA] | effective uptake
